According to patent US20240350481A1, “USE OF N-MYRISTOYL TRANSFERASE (NMT) INHIBITORS IN THE TREATMENT OF CANCER, AUTOIMMUNE DISORDERS, AND INFLAMMATORY DISORDERS” (PACYLEX PHARMACEUTICALS INC., priority 2020, published 2024):
At least one structure is not confirmed: it was looked up by name or label, or the drawing left a doubt.

Experiments:
IM9 cells = test: Cell proliferation assay (cell count); type: cell-based; details: 0.05 and 0.1 μM
BL2 cells = test: Cell proliferation assay (cell count); type: cell-based; details: 0.05 and 0.1 μM
[1] = test system: patient DLBCL3 derived lymphoma xenograft; test: DLBCL3 patient-derived xenograft, tumor growth; type: in vivo, mouse; details: 50 mg/kg daily, day 13
Experimental: (§1) The dose volume was 10 mL/kg.
(§2) TGI (%)=(Vcontrol−Vtreated)/(Vcontrol−Vnitial)*100.
The pleural fluid was collected in cold sterile 20% RPMI 1640 medium and neoplastic cells were isolated with Ficoll-Paque Plus (GE Healthcare) and re-suspended in […] (Life Technologies) with 20% foetal bovine serum (Life Technologies, Carlsbad, CA). […] The cell suspension was injected subcutaneously in the flank of 4-6-week-old NODscid mice. When the tumors reached a maximum of 1000 mm^3, the mice were sacrificed, tumors were harvested, and a necropsy was performed. Xenograft tumors were immediately frozen, fixed in formalin, and stored in 90% foetal bovine serum, and 10% dimethyl sulfoxide or placed in RPMI 1640 medium. This process was repeated to produce subsequent generations of patient-derived xenograft models (P2, P3, P4, . . . ). To evaluate the maintenance of the morphology and main characteristics of the tumor of origin, formalin-fixed, paraffin-embedded tissue sections from patient tumor samples and xenografts of all established patient-derived xenograft models were stained with haematoxylin and eosin. These sections were also immunostained to measure the expression of various markers. A clinical pathologist reviewed all the slides. […]

BL2 xenografts = test: BL2 xenograft, tumor growth; type: in vivo, mouse; details: for surviving mice with 100% tumor regression: 13 days
Source text: BL2 xenograft study at Jackson Laboratory: One hundred five (105) 6 week old female NOD.CB17-Prkdc scid/J (NOD scid, Stock #001303) mice were transferred to the in vivo research laboratory in Sacramento, CA. The mice were ear notched for identification and housed in individually and positively ventilated polysulfone cages with HEPA filtered air at a density of 5 mice per cage. Initially cages were changed every two weeks. The animal room was lighted entirely with artificial fluorescent lighting, with a controlled 12 hour light/dark cycle (6 am to 6 pm light). The normal temperature and relative humidity ranges in the animal rooms were 20-26° C. and 30-70%, respectively. The animal rooms were set to have up to 15 air exchanges per hour. Filtered tap water, acidified to a pH of 2.5 to 3.0, and standard lab chow were provided ad libitum.
as §1, §2

Cc1c(N[S+](=O)([O-])c2c(Cl)cc(-c3ccnc(N4CCNCC4)c3)cc2Cl)c(CC(C)C)nn1C [PCLX-001]
proliferation over time (IM9 cells): little effect
proliferation over time (BL2 cells): completely inhibits
surviving mice with complete tumor regression [1]: 6 of 7
surviving mice with 100% tumor regression (BL2 xenografts; 56 mg/kg daily): 9 of 9
surviving mice with 100% tumor regression (BL2 xenografts; 60 mg/kg daily): 7 of 7
survival of BL2 tumor bearing mice (BL2 xenografts; 20-50 mg/kg/day, vs vehicle controls): prolongs the survival
